# Article PMC8095187
# Numbering of substitutions follows the chain as printed. These are yes or no findings as the source states them, for the method shown. In cells and extracts the contact can be indirect. Binding calls can cover weak binding; strength is not graded here. Where a sequence is shown, tags or fusion partners need not be part of it.
# Assays:
# Test in all cases: co-IP; L6 myoblasts stably expressing FLAG-Tmod3-WT or mutants, serum starved 2 hours, with or without 2 mM AICAR for 30 minutes; anti-FLAG M2 affinity gel; blots with antibodies against tropomyosin isoforms
# [1] = molecular target: T1, FLAG-Tmod3-WT (stably expressed in L6 myoblasts) (mouse) (UniProt Q9JHJ0)
# T1 sequence: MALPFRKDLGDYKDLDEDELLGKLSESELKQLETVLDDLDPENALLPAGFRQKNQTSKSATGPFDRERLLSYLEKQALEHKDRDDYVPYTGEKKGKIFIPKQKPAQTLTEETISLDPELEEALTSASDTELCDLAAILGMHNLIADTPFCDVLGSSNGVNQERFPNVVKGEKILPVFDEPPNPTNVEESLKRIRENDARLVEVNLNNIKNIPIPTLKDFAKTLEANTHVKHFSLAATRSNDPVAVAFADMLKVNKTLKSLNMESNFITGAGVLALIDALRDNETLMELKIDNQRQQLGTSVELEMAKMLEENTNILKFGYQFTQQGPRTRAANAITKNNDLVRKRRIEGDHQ
# [2] = molecular target: T2, FLAG-Tmod3-S25A (stably expressed in L6 myoblasts) (mouse) (UniProt Q9JHJ0)
# T2 sequence: T1 sequence with S25A
# [3] = molecular target: T3, FLAG-Tmod3-S25D (stably expressed in L6 myoblasts) (mouse) (UniProt Q9JHJ0)
# T3 sequence: T1 sequence with S25D
binding [1],binding [2],binding [3],Substance
binds,binds,binds,Tpm1.6 (tropomyosin isoform) (rat (endogenous in L6 myoblasts))
binds,binds,binds,Tpm1.7 (tropomyosin isoform) (rat (endogenous in L6 myoblasts))
